These are yes or no findings as the source states them, for the method shown. Binding can be weak; no strength is given. For some of these results: In cells and extracts the contact can be indirect. For some of these results: Where a sequence is shown, tags or fusion partners need not be part of it.
T1: Scc4 (specific chlamydia chaperone 4) (Chlamydia trachomatis) (UniProt O84670)
T1 sequence: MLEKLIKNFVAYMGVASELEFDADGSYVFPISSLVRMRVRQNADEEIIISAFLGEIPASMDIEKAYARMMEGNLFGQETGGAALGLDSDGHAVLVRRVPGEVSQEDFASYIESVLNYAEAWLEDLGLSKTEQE

Sequences of proteins named here, by UniProt entry; tags and fusion partners are left off. A change or cut given only in a name is not applied to a line headed by its entry.
UniProt O84090: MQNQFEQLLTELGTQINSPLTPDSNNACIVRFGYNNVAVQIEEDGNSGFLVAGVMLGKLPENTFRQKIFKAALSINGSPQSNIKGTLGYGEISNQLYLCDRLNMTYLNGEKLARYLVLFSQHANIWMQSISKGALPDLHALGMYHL

T2: Scc4 with an N-terminal His6-tag (His6-Scc4) (Chlamydia trachomatis) (UniProt O84670)
T2 sequence: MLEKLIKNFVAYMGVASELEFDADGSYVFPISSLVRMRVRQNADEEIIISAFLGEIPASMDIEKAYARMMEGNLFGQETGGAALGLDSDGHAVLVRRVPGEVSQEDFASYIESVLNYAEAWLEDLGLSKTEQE

B1: Scc4 (specific chlamydia chaperone 4) (protein, UniProt O84670 1-133)
chain: MLEKLIKNFVAYMGVASELEFDADGSYVFPISSLVRMRVRQNADEEIIISAFLGEIPASMDIEKAYARMMEGNLFGQETGGAALGLDSDGHAVLVRRVPGEVSQEDFASYIESVLNYAEAWLEDLGLSKTEQE

Legend:
[1] = molecular target: T1, Scc4 (specific chlamydia chaperone 4) (Chlamydia trachomatis); experiment: NMR titration; 1H,15N-HSQC of 0.5 mM 15N-Scc4 with 0, 0.25, 0.5, 1.0, 1.5 and 2.0 moles of Scc1-FLAG per mole; NMR buffer (50 mM sodium phosphate, 10 mM DTT, pH 7.3), 300 K; both purified
[2] = molecular target: T2, Scc4 with an N-terminal His6-tag (His6-Scc4) (Chlamydia trachomatis); experiment: pull-down; the two proteins co-expressed in E. coli; complex purified from clarified lysate by Ni-IMAC through the His6-tagged partner (Tris buffer pH 8.0, 300 mM NaCl), read by SDS-PAGE
[3] = molecular target: T2, Scc4 with an N-terminal His6-tag (His6-Scc4) (Chlamydia trachomatis); experiment: SEC; purified complex (co-expressed and co-purified; the renatured complex too), ProteoSEC 16/60 3-70 HR, NMR buffer (50 mM sodium phosphate, 10 mM DTT, pH 7.3); also after 2 days at room temperature; both purified
[4] = molecular target: Scc1 with an N-terminal His6-tag (His6-Scc1) (Chlamydia trachomatis) (UniProt O84090); experiment: NMR (1H,15N-HSQC of free and bound protein compared); renatured, purified 15N-Scc4:His6-Scc1 complex at 0.35 mM against free 15N-Scc4; NMR buffer, 300 K; both purified
[5] = molecular target: Scc1 with an N-terminal His6-tag (His6-Scc1) (Chlamydia trachomatis) (UniProt O84090); experiment: native gel or EMSA + SEC; purified on-column-associated complex (Scc4 from lysate, immobilised His6-Scc1), after purification and after 2 days at room temperature; both purified
[6] = molecular target: Scc1 with an N-terminal His6-tag (His6-Scc1) (Chlamydia trachomatis) (UniProt O84090); experiment: pull-down; the two proteins co-expressed in E. coli; complex purified from clarified lysate by Ni-IMAC through the His6-tagged partner (Tris buffer pH 8.0, 300 mM NaCl), read by SDS-PAGE
[7] = molecular target: Scc1 with an N-terminal His6-tag (His6-Scc1) (Chlamydia trachomatis) (UniProt O84090); experiment: pull-down; on-column association: 15N-Scc4 in clarified lysate loaded on His6-Scc1 immobilised on Ni-IMAC resin, washed with Tris buffer, eluted with 500 mM imidazole, SDS-PAGE; only the target purified
[8] = molecular target: Scc1 with an N-terminal His6-tag (His6-Scc1) (Chlamydia trachomatis) (UniProt O84090); experiment: SEC; purified complex (co-expressed and co-purified; the renatured complex too), ProteoSEC 16/60 3-70 HR, NMR buffer (50 mM sodium phosphate, 10 mM DTT, pH 7.3); also after 2 days at room temperature; both purified
[9] = molecular target: Scc1 with an N-terminal His6-tag (His6-Scc1) (Chlamydia trachomatis) (UniProt O84090); experiment: native gel or EMSA; purified in vivo-associated and renatured complexes, after purification and after 2 days at room temperature; 4-20% Tris/glycine gel, 25 mM Tris, 192 mM glycine, pH 8.3; purified Scc4 as migration reference; both purified
[10] = molecular target: Scc1 with an N-terminal His6-tag (His6-Scc1) (Chlamydia trachomatis) (UniProt O84090); experiment: pull-down; renatured association: purified His6-Scc1 inclusion bodies denatured in 6 M GuHCl, diluted to 2 M GuHCl with refolding buffer, added dropwise to clarified Scc4 lysate (final 0.75-1.0 M GuHCl); Ni-IMAC, SDS-PAGE; only the target purified

Molecule	binding [1]	binding [2]	binding [3]	binding [4]	binding [5]	binding [6]	binding [7]	binding [8]	binding [9]	binding [10]
Scc1 with a C-terminal FLAG tag (Scc1-FLAG) (from UniProt O84090)	binds weakly	binds	binds	–	–	–	–	–	–	–
B1	–	–	–	binds	binds	binds	binds	binds	binds	binds

Source: article PMC7692554
